Taken from: PubChem BioAssay AID1259254 (NCATS, 2017)

Assay: 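Gene knock-downs that lead to re-replication, shown by excess G2 DNA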 (primary screen)
System: human HCT116 colorectal cancer cells
Reagents: single siRNA against human genes
Time to read-out: 3 days
Read-out: 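Imaged Hoechst DNA stain sorts each cell into a cycle phase by DNA amount; per plate, G2 fraction set to 0% for non-targeting and 100% for GMNN siRNA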
Direction: G2 robust z-score and G2 cells, % of GMNN control: higher = more G2 cells, more excess DNA replication
Call rule: 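Active siRNAs have a G2 robust z of 5 or more median absolute deviations over the median, which in these data means about 38% or higher of GMNN control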
The deposit covers about 59,000 reagents; below is an unselected part. In the full data, about 1,550 (2.6%) were called active. 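G2 share is only a proxy for re-replication; each gene was hit by three separate siRNAs, and active genes were retested.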 Reagents against one gene are numbered here. Not all columns of the deposit are shown. No sequences are given here. Not given: the amount of reagent.

| Gene | siRNA no. | G2 robust z-score | G2 cells, % of GMNN control | outcome |
| --- | --- | --- | --- | --- |
| CT47B1 | 1 | -1.03 | -4.31 | inactive |
| CT47B1 | 2 | -0.329 | 0.655 | inactive |
| CT47B1 | 3 | -0.375 | 0.329 | inactive |
| RPL8 | 1 | 3.79 | 29.7 | inactive |
| RPL8 | 2 | 3.77 | 29.5 | inactive |
| RPL8 | 3 | 6.27 | 47.1 | active |
| CLEC10A | 1 | 1.75 | 15.3 | inactive |
| CLEC10A | 2 | 0.38 | 5.64 | inactive |
| CLEC10A | 3 | 0.0875 | 3.58 | inactive |
| ASB2 | 1 | -0.965 | -3.82 | inactive |
| ASB2 | 2 | -0.0487 | 2.62 | inactive |
| ASB2 | 3 | 0.264 | 4.82 | inactive |
| PDE6H | 1 | 3.4 | 26.9 | inactive |
| PDE6H | 2 | -0.465 | -0.301 | inactive |
| PDE6H | 3 | -0.0962 | 2.29 | inactive |
| TTK | 1 | 10.5 | 77.2 | active |
| TTK | 2 | 2.2 | 18.4 | inactive |
| TTK | 3 | 4.09 | 31.7 | inactive |
| ZDHHC6 | 1 | 0.794 | 8.55 | inactive |
| ZDHHC6 | 2 | -0.55 | -0.903 | inactive |
| ZDHHC6 | 3 | -1.04 | -4.38 | inactive |
| CRYAB | 1 | 5.68 | 43 | active |
| CRYAB | 2 | 0.682 | 7.77 | inactive |
| CRYAB | 3 | -0.364 | 0.406 | inactive |
| AP5M1 | 1 | -0.109 | 2.2 | inactive |
| AP5M1 | 2 | 2.41 | 19.9 | inactive |
| AP5M1 | 3 | -0.601 | -1.26 | inactive |
| DQX1 | 1 | 0.018 | 3.09 | inactive |
| DQX1 | 2 | -1.11 | -4.84 | inactive |
| DQX1 | 3 | 0.909 | 9.37 | inactive |
| BHLHE40 | 1 | 1.96 | 16.8 | inactive |
| BHLHE40 | 2 | 3.56 | 28 | inactive |
| BHLHE40 | 3 | -0.107 | 2.21 | inactive |

Part of the list above, reformatted:
Gene | siRNA no. | G2 robust z-score | G2 cells, % of GMNN control | outcome
ASB2 | 1 | -0.965 | -3.82 | inactive
ASB2 | 2 | -0.0487 | 2.62 | inactive
ASB2 | 3 | 0.264 | 4.82 | inactive
PDE6H | 1 | 3.4 | 26.9 | inactive
PDE6H | 2 | -0.465 | -0.301 | inactive
PDE6H | 3 | -0.0962 | 2.29 | inactive
TTK | 1 | 10.5 | 77.2 | active
TTK | 2 | 2.2 | 18.4 | inactive
TTK | 3 | 4.09 | 31.7 | inactive
ZDHHC6 | 1 | 0.794 | 8.55 | inactive
ZDHHC6 | 2 | -0.55 | -0.903 | inactive
ZDHHC6 | 3 | -1.04 | -4.38 | inactive
CRYAB | 1 | 5.68 | 43 | active
CRYAB | 2 | 0.682 | 7.77 | inactive

The listing continues.
| Gene | siRNA no. | G2 robust z-score | G2 cells, % of GMNN control | outcome |
| --- | --- | --- | --- | --- |
| STK39 | 1 | -0.287 | 0.945 | inactive |
| STK39 | 2 | -0.193 | 1.61 | inactive |
| STK39 | 3 | 3.09 | 24.7 | inactive |
| LSG1 | 1 | -0.992 | -4.01 | inactive |
| LSG1 | 2 | 0.661 | 7.62 | inactive |
| LSG1 | 3 | -0.908 | -3.42 | inactive |
| MSS51 | 1 | -0.59 | -1.18 | inactive |
| MSS51 | 2 | 1.26 | 11.8 | inactive |
| MSS51 | 3 | -0.345 | 0.542 | inactive |
| BCCIP | 1 | -1.13 | -5.01 | inactive |
| BCCIP | 2 | -0.0758 | 2.43 | inactive |
| BCCIP | 3 | 0.299 | 5.07 | inactive |
| FBXO47 | 1 | 1.03 | 10.2 | inactive |
| FBXO47 | 2 | -0.187 | 1.65 | inactive |
| FBXO47 | 3 | 0.233 | 4.61 | inactive |
| BLOC1S1 | 1 | 1.31 | 12.2 | inactive |
| BLOC1S1 | 2 | 0.0102 | 3.04 | inactive |
| BLOC1S1 | 3 | 2.71 | 22 | inactive |
| NAT8 | 1 | 1.54 | 13.8 | inactive |
| NAT8 | 2 | 2.63 | 21.5 | inactive |
| NAT8 | 3 | -0.779 | -2.51 | inactive |
| ZNF365 | 1 | 2.89 | 23.3 | inactive |
| ZNF365 | 2 | 4.33 | 33.4 | inactive |
| ZNF365 | 3 | -0.225 | 1.38 | inactive |
| PRADC1 | 1 | 0.123 | 3.83 | inactive |
| PRADC1 | 2 | -0.743 | -2.26 | inactive |
| PRADC1 | 3 | 0.91 | 9.37 | inactive |
| OR2A1 | 1 | 0.353 | 5.45 | inactive |
| OR2A1 | 2 | -0.562 | -0.986 | inactive |
| OR2A1 | 3 | 1.29 | 12.1 | inactive |
| FNDC9 | 1 | -0.485 | -0.448 | inactive |
| FNDC9 | 2 | 0.461 | 6.21 | inactive |
| FNDC9 | 3 | 1.03 | 10.2 | inactive |
| GDPD1 | 1 | 1.05 | 10.3 | inactive |
| GDPD1 | 2 | 0.626 | 7.37 | inactive |
| GDPD1 | 3 | -0.799 | -2.66 | inactive |
| PGLYRP4 | 1 | -0.644 | -1.56 | inactive |
| PGLYRP4 | 2 | -0.322 | 0.703 | inactive |
| PGLYRP4 | 3 | -1.09 | -4.74 | inactive |
| PABPC4L | 1 | 0.322 | 5.23 | inactive |
| PABPC4L | 2 | 0.093 | 3.62 | inactive |
| PABPC4L | 3 | -0.831 | -2.88 | inactive |
| TMEM14A | 1 | 2.76 | 22.4 | inactive |
| TMEM14A | 2 | 1.1 | 10.7 | inactive |
| TMEM14A | 3 | 0.345 | 5.4 | inactive |
| TOMM40L | 1 | -0.127 | 2.08 | inactive |
| TOMM40L | 2 | -1.11 | -4.87 | inactive |
| TOMM40L | 3 | 2.96 | 23.8 | inactive |
| STK3 | 1 | -0.493 | -0.498 | inactive |
| STK3 | 2 | 0.0362 | 3.22 | inactive |
| STK3 | 3 | 0.208 | 4.43 | inactive |
| UPK1B | 1 | 0.415 | 5.89 | inactive |
| UPK1B | 2 | 1.28 | 12 | inactive |
| UPK1B | 3 | 2.8 | 22.7 | inactive |
